Data taken from the supplement of paper PMC10849652.
Some of the results follow.

By UniProt entry, the sequences of proteins in these tests, tags left out. Where a name states a change or a piece, a line headed by the entry shows the natural chain unless it says otherwise.
UniProt P26232: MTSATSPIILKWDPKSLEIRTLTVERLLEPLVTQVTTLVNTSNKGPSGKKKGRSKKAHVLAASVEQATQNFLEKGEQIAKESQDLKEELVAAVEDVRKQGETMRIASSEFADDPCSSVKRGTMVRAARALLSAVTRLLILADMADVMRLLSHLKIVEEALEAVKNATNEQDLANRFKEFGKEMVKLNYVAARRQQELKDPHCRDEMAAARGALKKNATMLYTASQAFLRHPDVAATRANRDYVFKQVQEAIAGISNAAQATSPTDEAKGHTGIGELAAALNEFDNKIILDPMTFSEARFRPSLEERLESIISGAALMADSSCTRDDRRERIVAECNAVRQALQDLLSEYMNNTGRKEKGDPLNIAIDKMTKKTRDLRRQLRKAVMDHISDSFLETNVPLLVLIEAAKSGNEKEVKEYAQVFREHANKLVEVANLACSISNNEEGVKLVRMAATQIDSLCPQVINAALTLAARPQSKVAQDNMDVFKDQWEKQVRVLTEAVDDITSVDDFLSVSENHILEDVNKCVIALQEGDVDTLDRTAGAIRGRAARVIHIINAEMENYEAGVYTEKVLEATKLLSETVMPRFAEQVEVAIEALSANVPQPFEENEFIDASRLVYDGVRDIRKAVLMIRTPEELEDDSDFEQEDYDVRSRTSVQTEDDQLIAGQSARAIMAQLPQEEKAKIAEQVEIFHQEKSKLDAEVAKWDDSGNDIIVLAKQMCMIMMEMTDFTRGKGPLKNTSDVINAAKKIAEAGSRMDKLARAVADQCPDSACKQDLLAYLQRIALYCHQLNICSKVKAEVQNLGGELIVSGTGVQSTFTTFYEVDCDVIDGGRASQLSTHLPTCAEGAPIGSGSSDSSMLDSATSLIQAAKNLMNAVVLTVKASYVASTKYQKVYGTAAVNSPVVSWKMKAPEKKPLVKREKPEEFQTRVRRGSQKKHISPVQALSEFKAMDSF
UniProt P00167, whole entry, looked up: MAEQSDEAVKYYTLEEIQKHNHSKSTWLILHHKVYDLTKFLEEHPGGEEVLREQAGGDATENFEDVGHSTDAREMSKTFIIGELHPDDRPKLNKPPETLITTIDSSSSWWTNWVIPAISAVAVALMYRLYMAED
UniProt Q9NXF7, whole entry, looked up: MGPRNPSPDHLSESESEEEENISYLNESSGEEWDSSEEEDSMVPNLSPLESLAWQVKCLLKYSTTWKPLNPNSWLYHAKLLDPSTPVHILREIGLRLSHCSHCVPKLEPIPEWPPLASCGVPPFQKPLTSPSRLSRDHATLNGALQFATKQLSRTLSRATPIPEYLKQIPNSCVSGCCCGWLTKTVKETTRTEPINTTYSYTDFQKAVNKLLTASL
UniProt Q14247: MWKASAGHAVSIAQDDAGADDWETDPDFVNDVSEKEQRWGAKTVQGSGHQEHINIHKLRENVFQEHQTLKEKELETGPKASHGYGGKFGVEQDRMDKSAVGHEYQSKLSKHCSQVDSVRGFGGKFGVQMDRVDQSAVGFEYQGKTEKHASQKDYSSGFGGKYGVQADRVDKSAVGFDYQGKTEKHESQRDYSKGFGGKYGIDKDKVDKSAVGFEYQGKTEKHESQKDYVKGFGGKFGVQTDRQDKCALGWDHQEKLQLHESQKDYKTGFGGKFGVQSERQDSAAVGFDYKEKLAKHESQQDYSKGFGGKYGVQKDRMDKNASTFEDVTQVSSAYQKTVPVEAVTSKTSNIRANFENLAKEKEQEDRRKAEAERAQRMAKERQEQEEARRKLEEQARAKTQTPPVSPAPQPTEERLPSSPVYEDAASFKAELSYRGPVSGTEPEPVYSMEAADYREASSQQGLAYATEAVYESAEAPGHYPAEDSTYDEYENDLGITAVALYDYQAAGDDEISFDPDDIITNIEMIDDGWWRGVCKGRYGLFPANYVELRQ
UniProt Q9NRF8: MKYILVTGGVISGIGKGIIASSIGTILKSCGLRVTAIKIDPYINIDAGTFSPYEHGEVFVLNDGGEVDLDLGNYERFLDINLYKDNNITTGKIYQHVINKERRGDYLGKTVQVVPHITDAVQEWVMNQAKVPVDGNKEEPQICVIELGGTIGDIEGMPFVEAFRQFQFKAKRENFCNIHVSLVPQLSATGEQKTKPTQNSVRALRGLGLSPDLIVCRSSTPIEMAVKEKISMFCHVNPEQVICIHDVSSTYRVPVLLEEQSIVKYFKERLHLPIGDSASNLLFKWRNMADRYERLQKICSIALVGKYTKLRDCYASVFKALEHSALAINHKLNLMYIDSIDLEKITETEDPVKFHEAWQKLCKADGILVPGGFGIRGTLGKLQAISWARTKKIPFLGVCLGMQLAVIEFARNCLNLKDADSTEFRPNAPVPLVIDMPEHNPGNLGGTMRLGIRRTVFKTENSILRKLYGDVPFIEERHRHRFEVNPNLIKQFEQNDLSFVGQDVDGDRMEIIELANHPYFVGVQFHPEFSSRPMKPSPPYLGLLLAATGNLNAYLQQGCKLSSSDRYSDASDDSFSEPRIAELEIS
UniProt Q5QP82: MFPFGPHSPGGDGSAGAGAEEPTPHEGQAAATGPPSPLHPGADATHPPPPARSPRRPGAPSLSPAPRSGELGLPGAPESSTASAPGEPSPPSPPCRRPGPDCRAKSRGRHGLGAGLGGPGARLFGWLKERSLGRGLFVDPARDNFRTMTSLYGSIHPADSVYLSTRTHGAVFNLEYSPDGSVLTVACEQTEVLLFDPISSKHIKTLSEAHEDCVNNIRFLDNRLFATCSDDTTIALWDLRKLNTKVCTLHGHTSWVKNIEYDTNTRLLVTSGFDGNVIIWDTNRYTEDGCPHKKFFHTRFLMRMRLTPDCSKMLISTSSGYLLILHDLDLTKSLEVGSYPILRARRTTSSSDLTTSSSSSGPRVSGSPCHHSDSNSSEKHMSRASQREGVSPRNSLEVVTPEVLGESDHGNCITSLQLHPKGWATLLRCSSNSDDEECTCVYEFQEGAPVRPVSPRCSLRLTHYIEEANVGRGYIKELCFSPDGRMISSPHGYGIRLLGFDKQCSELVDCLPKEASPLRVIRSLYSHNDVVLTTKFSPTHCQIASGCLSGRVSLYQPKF
UniProt Q8N465: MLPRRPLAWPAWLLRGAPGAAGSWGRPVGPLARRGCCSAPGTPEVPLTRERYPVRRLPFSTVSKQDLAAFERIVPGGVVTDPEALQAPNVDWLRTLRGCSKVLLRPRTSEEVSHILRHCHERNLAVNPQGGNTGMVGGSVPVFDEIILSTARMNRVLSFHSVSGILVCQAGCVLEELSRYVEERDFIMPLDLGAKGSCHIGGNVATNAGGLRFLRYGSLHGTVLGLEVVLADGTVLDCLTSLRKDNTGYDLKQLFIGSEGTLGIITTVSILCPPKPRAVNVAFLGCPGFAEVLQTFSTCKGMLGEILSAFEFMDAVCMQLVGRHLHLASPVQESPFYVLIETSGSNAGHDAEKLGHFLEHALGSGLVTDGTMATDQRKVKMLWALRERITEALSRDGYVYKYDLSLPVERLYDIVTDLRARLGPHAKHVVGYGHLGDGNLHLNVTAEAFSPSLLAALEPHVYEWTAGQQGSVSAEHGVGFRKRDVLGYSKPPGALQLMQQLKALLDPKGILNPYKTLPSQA
UniProt Q96GG9: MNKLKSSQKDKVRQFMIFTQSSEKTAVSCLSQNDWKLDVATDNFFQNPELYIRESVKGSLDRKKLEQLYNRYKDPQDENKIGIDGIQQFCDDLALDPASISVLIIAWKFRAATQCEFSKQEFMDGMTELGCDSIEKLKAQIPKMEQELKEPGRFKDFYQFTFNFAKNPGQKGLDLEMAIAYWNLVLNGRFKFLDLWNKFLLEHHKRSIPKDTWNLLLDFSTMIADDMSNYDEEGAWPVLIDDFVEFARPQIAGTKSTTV
UniProt Q7L1T6: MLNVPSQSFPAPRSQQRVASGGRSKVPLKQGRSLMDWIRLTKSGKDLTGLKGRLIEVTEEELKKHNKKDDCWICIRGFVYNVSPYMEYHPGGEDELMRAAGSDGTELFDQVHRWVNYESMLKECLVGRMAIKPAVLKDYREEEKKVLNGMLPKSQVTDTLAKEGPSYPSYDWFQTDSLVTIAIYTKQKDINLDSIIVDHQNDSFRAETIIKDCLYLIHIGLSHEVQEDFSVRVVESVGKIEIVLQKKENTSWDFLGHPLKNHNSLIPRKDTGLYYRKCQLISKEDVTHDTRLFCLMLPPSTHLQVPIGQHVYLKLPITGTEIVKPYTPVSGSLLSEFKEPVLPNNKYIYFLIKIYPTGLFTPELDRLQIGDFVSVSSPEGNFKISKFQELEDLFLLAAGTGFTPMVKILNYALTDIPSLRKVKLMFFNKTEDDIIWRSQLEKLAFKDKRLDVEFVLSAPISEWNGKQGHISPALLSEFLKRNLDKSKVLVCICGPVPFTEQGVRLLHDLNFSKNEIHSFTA
UniProt Q1MSJ5: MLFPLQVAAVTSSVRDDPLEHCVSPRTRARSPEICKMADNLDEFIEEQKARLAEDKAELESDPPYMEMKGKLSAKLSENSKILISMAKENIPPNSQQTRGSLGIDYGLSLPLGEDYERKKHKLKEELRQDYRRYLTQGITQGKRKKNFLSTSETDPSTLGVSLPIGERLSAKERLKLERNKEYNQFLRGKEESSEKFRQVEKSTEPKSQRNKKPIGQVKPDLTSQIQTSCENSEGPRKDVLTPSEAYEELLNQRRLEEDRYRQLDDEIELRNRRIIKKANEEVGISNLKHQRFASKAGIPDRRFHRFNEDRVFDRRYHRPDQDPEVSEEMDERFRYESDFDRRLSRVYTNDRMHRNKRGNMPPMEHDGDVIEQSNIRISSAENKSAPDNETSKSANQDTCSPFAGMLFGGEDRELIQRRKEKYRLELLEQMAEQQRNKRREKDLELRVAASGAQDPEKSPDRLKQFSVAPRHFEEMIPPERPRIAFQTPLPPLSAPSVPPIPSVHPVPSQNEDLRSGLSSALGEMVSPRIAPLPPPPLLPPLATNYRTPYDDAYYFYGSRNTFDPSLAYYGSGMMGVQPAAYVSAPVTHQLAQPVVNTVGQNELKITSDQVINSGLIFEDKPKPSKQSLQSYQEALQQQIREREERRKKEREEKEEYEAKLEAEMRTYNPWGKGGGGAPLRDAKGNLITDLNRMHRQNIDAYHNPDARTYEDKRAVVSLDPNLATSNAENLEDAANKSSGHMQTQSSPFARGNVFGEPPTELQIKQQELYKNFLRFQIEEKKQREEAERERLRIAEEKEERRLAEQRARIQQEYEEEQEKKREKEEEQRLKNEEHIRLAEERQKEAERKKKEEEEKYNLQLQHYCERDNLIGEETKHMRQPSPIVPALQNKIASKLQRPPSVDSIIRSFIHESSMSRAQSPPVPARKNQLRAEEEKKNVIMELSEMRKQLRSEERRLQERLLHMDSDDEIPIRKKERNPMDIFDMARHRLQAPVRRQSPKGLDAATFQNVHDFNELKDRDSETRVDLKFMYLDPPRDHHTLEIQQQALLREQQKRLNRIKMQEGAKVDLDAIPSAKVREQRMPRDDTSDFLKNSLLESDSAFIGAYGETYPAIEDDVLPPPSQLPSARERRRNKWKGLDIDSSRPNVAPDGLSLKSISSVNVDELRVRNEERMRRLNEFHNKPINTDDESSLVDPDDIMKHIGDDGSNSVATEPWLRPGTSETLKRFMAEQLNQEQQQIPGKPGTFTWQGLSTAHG
UniProt P35222, whole entry, looked up: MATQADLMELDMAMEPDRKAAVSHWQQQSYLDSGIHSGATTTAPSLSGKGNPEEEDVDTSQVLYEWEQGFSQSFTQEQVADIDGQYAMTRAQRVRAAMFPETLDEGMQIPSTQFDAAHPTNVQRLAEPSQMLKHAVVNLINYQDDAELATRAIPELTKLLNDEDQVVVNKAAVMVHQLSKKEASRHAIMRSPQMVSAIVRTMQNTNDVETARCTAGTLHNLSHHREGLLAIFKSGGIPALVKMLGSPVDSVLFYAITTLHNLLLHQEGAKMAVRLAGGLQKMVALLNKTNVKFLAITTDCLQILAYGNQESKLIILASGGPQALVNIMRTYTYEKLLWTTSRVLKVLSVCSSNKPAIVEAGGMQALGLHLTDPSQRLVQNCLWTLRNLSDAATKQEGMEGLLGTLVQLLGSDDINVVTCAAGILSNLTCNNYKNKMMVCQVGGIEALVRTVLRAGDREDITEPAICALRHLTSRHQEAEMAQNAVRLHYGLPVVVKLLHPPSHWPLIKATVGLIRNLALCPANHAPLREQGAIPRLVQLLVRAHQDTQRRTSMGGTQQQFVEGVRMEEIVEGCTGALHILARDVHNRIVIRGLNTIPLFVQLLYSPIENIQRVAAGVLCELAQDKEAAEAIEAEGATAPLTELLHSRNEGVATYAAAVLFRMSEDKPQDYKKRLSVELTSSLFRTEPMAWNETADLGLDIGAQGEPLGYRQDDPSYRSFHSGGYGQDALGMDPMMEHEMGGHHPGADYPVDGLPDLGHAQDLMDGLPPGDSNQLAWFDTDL
UniProt Q9NWV4: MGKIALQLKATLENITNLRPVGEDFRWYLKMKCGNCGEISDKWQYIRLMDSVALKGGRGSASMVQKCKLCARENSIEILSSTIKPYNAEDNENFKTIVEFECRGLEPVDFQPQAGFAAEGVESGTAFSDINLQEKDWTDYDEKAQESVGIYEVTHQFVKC

Key:
Experiment in all cases: log2 fold change, soluble protein after heating vs DMSO (PISA); higher = thermal stabilisation; K562 cells, 10 uM, 30 min; active = over 0.2 and 3.5 SD of the protein, either way, in both replicates (recomputed)
[1] = compound: C#Cc1cccc(Nc2ncnc3cc(OCCOC)c(OCCOC)cc23)c1 [erlotinib]
Procedure, shortened: (§1)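 Values are thermal stability changes relative to control samples and are taken from duplicates. They are stated as log2 fold changes. Before quantification by TMTpro 16plex LC-MS/MS with equalised channel sums, K562 cells at 2×10^6 cells/mL were treated with 10 μM compound for 30 min, heated in aliquots for 3 min across 48°C-58°C, pooled, extracted in PBS with 0.5% NP-40 at 4°C, and centrifuged at 21,000xg for 90 min to give the soluble supernatant.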

[2] = compound: C/C(=N\NC(=O)C1=CC(=CC=C1)S(=O)(=O)N2CCOCC2)/C3=C(C=CC(=C3)Cl)O
Procedure, shortened: as §1

[3] = compound: C1=CC(=C(C=C1Cl)C2=NC3=NC=CN=C3C(=N2)NC4=CC=NC=C4)F
Procedure, shortened: as §1

[4] = compound: C1=CC(=CC=C1C2=NC3=C(N2)C=C(C=C3)C(=O)N)OC4=CC=C(C=C4)Cl
Procedure, shortened: as §1

[5] = compound: C1=CC2=C(C=CC(=C2)/C=C\3/C(=O)NC(=NCC4=CC=CS4)S3)N=C1
Procedure, shortened: as §1

[6] = compound: C1=CC2=NC=CN=C2C=C1/C=C/3\C(=O)NC(=O)S3
Procedure, shortened: as §1

[7] = compound: C1=CC=C(C=C1)C2=NC(=C(N2)C3=CC=NC=C3)C4=CC(=C(C=C4)Cl)O
Procedure, shortened: as §1

[8] = compound: C1=CC=C2C(=C1)C3=NNC4=CC=CC(=C43)C2=O
Procedure, shortened: as §1

[9] = compound: C1CCN(C1)C(=O)NC2=CC=CC(=C2)NC3=NC=C(C(=N3)NCCC4=CN=CN4)Br
Procedure, shortened: as §1

[10] = compound: C1CN(CCC1(CC2=CC=C(C=C2)Cl)N)C3=NC=NC4=C3C=CN4
Procedure, shortened: as §1

Measured: log2 fold change

DCAF13 (UniProt Q9NV06)
inactive: [1] -0.085 | [2] -0.172 | [3] -0.441 | [4] 0.079 | [5] -0.114 | [6] -0.05 | [7] -0.034 | [8] -0.047 | [9] 0.044 | [10] -0.094

DCAF1 (UniProt Q9Y4B6)
inactive: [1] -0.017 | [2] 0.1 | [3] 0.056 | [4] 0.026 | [5] 0.042 | [6] 0 | [7] -0.021 | [8] -0.016 | [9] -0.026 | [10] 0.028

CTNNA2 (UniProt P26232)
inactive: [1] -0.041 | [2] 0.083 | [3] 0.038 | [4] 0.025 | [5] 0 | [6] -0.026 | [7] -0.045 | [8] 0.033 | [9] 0.055 | [10] -0.013

2 entries drawn at random from those above:
CTNNA2 (UniProt P26232)
inactive: [1] -0.041 | [2] 0.083 | [3] 0.038 | [4] 0.025 | [5] 0 | [6] -0.026 | [7] -0.045 | [8] 0.033 | [9] 0.055 | [10] -0.013

DCAF13 (UniProt Q9NV06)
inactive: [1] -0.085 | [2] -0.172 | [3] -0.441 | [4] 0.079 | [5] -0.114 | [6] -0.05 | [7] -0.034 | [8] -0.047 | [9] 0.044 | [10] -0.094

Remaining list, next part

CYB5A (UniProt P00167)
inactive: [1] 0.03 | [2] 0.033 | [3] -0.019 | [4] 0.024 | [5] 0.071 | [6] 0.105 | [7] 0.149 | [8] 0.033

DCAF16 (UniProt Q9NXF7)
inactive: [1] 0.051 | [2] 0.042 | [3] 0.036 | [4] 0 | [5] -0.034 | [6] -0.002 | [7] -0.001 | [8] 0.048 | [9] 0.039 | [10] -0.127

CTU1 (UniProt Q7Z7A3)
inactive: [1] 0.05 | [2] -0.01 | [3] 0.079 | [4] 0.047 | [5] 0.079 | [6] 0.011 | [7] 0.04 | [8] 0.042 | [9] 0.032 | [10] 0.008

CTTN (UniProt Q14247)
inactive: [1] -0.013 | [2] -0.004 | [3] 0 | [4] -0.035 | [5] 0.029 | [6] 0.017 | [7] 0 | [8] -0.015 | [9] 0.015 | [10] 0.008

DCTN1 isoform 4 (UniProt Q14203)
inactive: [1] 0.04 | [2] 0.031 | [3] -0.053 | [4] -0.033 | [5] 0.037 | [6] -0.009 | [7] -0.023 | [8] 0.05 | [9] 0.046 | [10] -0.072

CTPS2 (UniProt Q9NRF8)
inactive: [1] 0.04 | [2] 0.013 | [3] 0.03 | [4] 0.007 | [5] 0.017 | [6] 0.038 | [7] 0.029 | [8] -0.019 | [9] -0.011 | [10] 0.04

CYCS (UniProt P99999)
inactive: [1] -0.03 | [2] 0.015 | [3] -0.007 | [4] 0.026 | [5] -0.002 | [6] -0.014 | [7] -0.044 | [8] 0 | [9] 0.025 | [10] 0.025

DCAKD (UniProt Q8WVC6)
inactive: [1] 0.045 | [2] -0.073 | [3] 0.079 | [4] 0.033 | [5] 0.082 | [6] 0.008 | [7] -0.067 | [8] -0.004 | [9] -0.001 | [10] 0.001

DCTN3 (UniProt O75935)
inactive: [1] 0.021 | [2] 0.005 | [3] 0.015 | [4] -0.006 | [5] 0.001 | [6] 0.004 | [7] 0.003 | [8] 0.028 | [9] -0.021 | [10] -0.082

DCAF10 (UniProt Q5QP82)
inactive: [1] 0.01 | [2] 0.014 | [3] 0.021 | [4] 0.029 | [5] -0.038 | [6] 0.064 | [7] -0.077 | [8] -0.013 | [9] 0.029 | [10] 0.006

D2HGDH (UniProt Q8N465)
inactive: [1] 0.002 | [2] -0.151 | [3] -0.019 | [4] 0.048 | [5] 0.016 | [6] 0.056 | [7] 0.052 | [8] 0.116 | [9] -0.009 | [10] 0.105

DAZAP1 (UniProt Q96EP5)
inactive: [1] -0.032 | [2] -0.042 | [3] -0.047 | [4] 0.024 | [5] 0.042 | [6] 0.015 | [7] -0.001 | [8] -0.004 | [9] 0.015 | [10] -0.015

CWC27 (UniProt Q6UX04)
inactive: [1] 0.084 | [2] -0.023 | [3] 0.055 | [4] -0.049 | [5] 0.021 | [6] 0.02 | [7] 0.041 | [8] -0.102 | [9] -0.086 | [10] -0.053

CSRP1 (UniProt P21291)
inactive: [1] 0.081 | [2] -0.039 | [3] 0.053 | [4] -0.024 | [5] -0.006 | [6] 0.026 | [7] 0.029 | [8] -0.014 | [9] -0.02 | [10] 0.055

CXorf38 (UniProt Q8TB03)
inactive: [1] -0.093 | [2] 0.029 | [3] -0.007 | [4] 0.012 | [5] 0.05 | [6] 0.05 | [7] -0.054 | [8] 0.061 | [9] -0.028 | [10] 0.033

DCTN6 (UniProt O00399)
inactive: [1] 0.009 | [2] -0.015 | [3] -0.006 | [4] 0.032 | [5] 0.007 | [6] 0.026 | [7] 0.161 | [8] -0.016 | [9] -0.011 | [10] -0.027

DCUN1D1 (UniProt Q96GG9)
inactive: [1] -0.038 | [2] 0.052 | [3] 0.041 | [4] -0.009 | [5] 0.015 | [6] 0.001 | [7] 0.021 | [8] -0.014 | [9] -0.017 | [10] 0.024

DCTPP1 (UniProt Q9H773)
inactive: [1] 0.01 | [2] -0.07 | [3] 0.14 | [4] -0.039 | [5] -0.073 | [6] 0.035 | [7] 0.194 | [8] 0.012 | [9] -0.021 | [10] -0.054

CYB5R4 (UniProt Q7L1T6)
inactive: [1] -0.027 | [2] 0.013 | [3] 0.025 | [4] 0.021 | [5] 0.049 | [6] -0.01 | [7] 0.061 | [8] 0.033 | [9] -0.002 | [10] 0.103

DCAF15 (UniProt Q66K64)
inactive: [1] 0.065 | [2] 0.296 | [3] -0.046 | [4] -0.022 | [5] -0.167 | [6] 0.067 | [7] -0.112 | [8] -0.041 | [9] -0.105 | [10] 0.079

CSPP1 (UniProt Q1MSJ5)
inactive: [1] -0.016 | [2] -0.07 | [3] -0.028 | [4] -0.019 | [5] 0.183 | [6] 0.042 | [7] 0.117 | [8] 0.045 | [9] -0.058 | [10] 0.008

CUTA isoform 2 (UniProt O60888)
inactive: [1] -0.01 | [2] -0.066 | [3] 0 | [4] 0.033 | [5] 0 | [6] 0.003 | [7] 0.091 | [8] -0.054 | [9] -0.1 | [10] -0.105

CTNNB1 (UniProt P35222)
inactive: [1] -0.035 | [2] 0.062 | [3] -0.033 | [4] 0.025 | [5] 0.092 | [6] 0.108 | [7] 0.036 | [8] -0.01 | [9] -0.002 | [10] -0.032

CZIB (UniProt Q9NWV4)
inactive: [1] -0.04 | [2] -0.021 | [3] 0.038 | [4] -0.003 | [5] -0.001 | [6] 0.021 | [7] -0.008 | [8] -0.013 | [9] 0.008 | [10] -0.007

DARS2 (UniProt Q6PI48)
inactive: [1] -0.008 | [2] -0.017 | [3] 0.026 | [4] 0.034 | [5] -0.031 | [6] 0.055 | [7] 0.014 | [8] -0.021 | [9] 0.014 | [10] -0.021

CYB5R1 (UniProt Q9UHQ9)
inactive: [1] 0.028 | [2] 0.047 | [3] 0.053 | [4] -0.001 | [5] 0.073 | [6] 0.02 | [7] -0.051 | [8] -0.008 | [9] 0.02 | [10] 0.012

CUL2 isoform 2 (UniProt Q13617)
inactive: [1] -0.032 | [2] 0.05 | [3] 0.07 | [4] 0.001 | [5] 0.043 | [6] 0.024 | [7] 0.046 | [8] 0.009 | [9] 0.051 | [10] 0.02
